Measurements: publication PMC5496861, “Yeast Cip1 is activated by environmental stress to inhibit Cdk1–G1 cyclins via Mcm1 and Msn2/4”
Results are given in words; binding and its absence hold for the method and conditions named. In cells and extracts the contact can be indirect. Some results given as binding are weak or reduced against the parent protein; the word gives no strength. Where a sequence is shown, tags or fusion partners need not be part of it.

Key:
Experiment in all cases: co-IP; Cip1 and cyclin overexpressed (GAL1 promoter) in two different BJ2168 cells; lysates (100 mM NaCl, 0.1% Triton X-100, 50 mM Tris-HCl pH 7.5) mixed and incubated with antibody-coupled Sepharose beads for 1 h; anti-HA precipitates the cyclin (Fig. 7a; the antibody of Fig. 7b is not told); cells untreated or with 0.5 M KCl for 10 min at 30 °C; western blot
[1] = molecular target: T1, Cln2, C-terminal HA3 tag (S. cerevisiae) (UniProt P20438)
T1 sequence: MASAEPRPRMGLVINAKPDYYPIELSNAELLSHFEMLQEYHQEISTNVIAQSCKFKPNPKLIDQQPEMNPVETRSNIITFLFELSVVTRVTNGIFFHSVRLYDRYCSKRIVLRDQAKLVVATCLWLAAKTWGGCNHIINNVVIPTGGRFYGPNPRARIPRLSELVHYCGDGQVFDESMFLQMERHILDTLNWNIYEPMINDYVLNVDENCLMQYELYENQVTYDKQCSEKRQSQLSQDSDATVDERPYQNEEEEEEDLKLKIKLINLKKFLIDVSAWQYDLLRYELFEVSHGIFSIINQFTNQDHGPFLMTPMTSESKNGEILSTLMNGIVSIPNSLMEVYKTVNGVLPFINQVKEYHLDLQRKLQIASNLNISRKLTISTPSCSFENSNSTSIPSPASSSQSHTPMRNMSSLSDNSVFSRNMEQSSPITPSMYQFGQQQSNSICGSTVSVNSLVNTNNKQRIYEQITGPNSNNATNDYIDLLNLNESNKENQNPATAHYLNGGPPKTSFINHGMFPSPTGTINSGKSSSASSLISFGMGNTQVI

[2] = molecular target: T2, Cln3, C-terminal HA3 tag (S. cerevisiae) (UniProt P13365)
T2 sequence: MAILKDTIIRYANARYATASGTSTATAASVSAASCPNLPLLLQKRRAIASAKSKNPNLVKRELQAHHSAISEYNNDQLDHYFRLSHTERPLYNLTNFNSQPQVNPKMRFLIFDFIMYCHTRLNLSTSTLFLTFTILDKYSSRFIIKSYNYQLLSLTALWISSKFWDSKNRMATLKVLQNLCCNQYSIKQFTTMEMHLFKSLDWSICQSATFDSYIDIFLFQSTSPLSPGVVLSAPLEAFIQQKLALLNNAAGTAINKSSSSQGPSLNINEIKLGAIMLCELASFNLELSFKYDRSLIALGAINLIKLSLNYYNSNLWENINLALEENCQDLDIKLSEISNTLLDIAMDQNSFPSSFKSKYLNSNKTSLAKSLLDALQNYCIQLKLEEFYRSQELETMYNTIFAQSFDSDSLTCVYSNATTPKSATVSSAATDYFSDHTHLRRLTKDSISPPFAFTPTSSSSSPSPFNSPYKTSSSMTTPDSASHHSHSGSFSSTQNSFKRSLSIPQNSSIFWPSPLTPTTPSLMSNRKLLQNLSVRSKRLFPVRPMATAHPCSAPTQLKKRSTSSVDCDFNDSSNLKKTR

[3] = molecular target: T3, Cln1, C-terminal HA3 tag (S. cerevisiae) (UniProt P20437)
T3 sequence: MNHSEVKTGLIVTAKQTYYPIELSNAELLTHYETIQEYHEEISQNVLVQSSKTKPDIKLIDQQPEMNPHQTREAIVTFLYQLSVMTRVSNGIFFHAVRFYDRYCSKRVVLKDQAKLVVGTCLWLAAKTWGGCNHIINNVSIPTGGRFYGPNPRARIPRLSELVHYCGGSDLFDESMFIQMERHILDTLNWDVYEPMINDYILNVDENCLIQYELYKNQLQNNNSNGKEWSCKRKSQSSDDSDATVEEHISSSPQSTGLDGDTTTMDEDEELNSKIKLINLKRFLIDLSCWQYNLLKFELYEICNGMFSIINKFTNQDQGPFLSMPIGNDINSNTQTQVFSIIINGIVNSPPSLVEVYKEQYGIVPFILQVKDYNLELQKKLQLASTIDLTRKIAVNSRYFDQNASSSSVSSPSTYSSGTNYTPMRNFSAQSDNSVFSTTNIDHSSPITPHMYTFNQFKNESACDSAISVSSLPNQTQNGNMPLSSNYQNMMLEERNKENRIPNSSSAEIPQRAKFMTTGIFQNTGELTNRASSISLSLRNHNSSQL

Measured: binding

B1: Cip1-3TA (T65A, T69A, T73A) (protein, UniProt Q02606 1-381)
chain: MLLERLHKRLHAGSSRRSQENKDKNCKPEDALPIQPEAQHQTQDPQPLLNCDYDDMIAFDRNLSAPVFAPVMAPINNSSSNQAKSSDASYFPPYLNANRTRQNSASSLASSVSDFAQNFKQHTFYNNNAQFTSFTPQFVGLLLEVYQNTCSDPTITPFDTTNPPSGILNRVAKAAIQQSELQQLDIGCDRNSWLLTLVRQRLLQEVRKDGYLSRNTSLTSLPPPPPPQFSEMLRVPSPFVNADITDPIPLSNTNSNPNVSSTTSLTNTLNWYSLQRSNVSMKNRNGSSQYISELQPQPILARTNSNNSVSNSNAFSLLTPTPTTDSAFNFNIALLSRQRSNIISSPLASTRLPTANVSTEESSILPNESLKLKRDLLRLKR
binds: all assays above
